Our source for the binding values is US20200407452A1 (published 2020).

For experiment [1], the target named is T1, human MET ECD (human, UniProt P08581 25-932).
T1 construct: range 1-932; recombinant; range as printed includes the signal peptide; also called hMET; hMET ECD
Put plainly: ELISA, MET ECD coated.

For experiment [2], the target named is T2, mouse MET ECD (mouse, UniProt P16056 25-931).
T2 construct: range 1-931; recombinant; range as printed includes the signal peptide; also called mMET; mMET ECD
Put plainly: ELISA, MET ECD coated.

Experiment [3] addresses llama MET ECD (llama). The experiment is described as follows: ELISA, MET protein coated. For orientation: In an ELISA, binding on a coated surface is turned into a signal by an enzyme label.
For experiment [4], the target named is llama-human MET chimeric protein CH6. Put plainly: ELISA, MET protein coated.
Experiment [5] addresses llama-human MET chimeric protein CH7. Put plainly: ELISA, MET protein coated.
Experiment [6] concerns the target T1, human MET ECD. Put plainly: ELISA, MET protein coated, mAb 0-20 nM.
Experiment [7] has as its target llama-human MET chimeric protein CH1. The experiment is described as follows: ELISA, MET protein coated, mAb 0-20 nM.
The target of experiment [8] is llama-human MET chimeric protein CH2. Put plainly: ELISA, MET protein coated, mAb 0-20 nM.
In experiment [9] the target is llama-human MET chimeric protein CH3. The experiment is described as follows: ELISA, MET protein coated, mAb 0-20 nM.
The target of experiment [10] is llama-human MET chimeric protein CH4. Put plainly: ELISA, MET protein coated, mAb 0-20 nM.
Experiment [11] has as its target llama-human MET chimeric protein CH5. Put plainly: ELISA, MET protein coated, mAb 0-20 nM.
The target of experiment [12] is llama-human MET chimeric protein CH4. Put plainly: ELISA, MET protein coated.
Experiment [13] addresses llama-human MET chimeric protein CH5. The experiment is described as follows: ELISA, MET protein coated.
The target of experiment [14] is llama-human MET chimeric protein CH6. The experiment is described as follows: ELISA, MET protein coated, mAb 0-20 nM.
For experiment [15], the target named is llama-human MET chimeric protein CH7. The experiment is described as follows: ELISA, MET protein coated, mAb 0-20 nM.
The target of experiment [16] is llama-human MET chimeric protein CH3. Put plainly: ELISA, MET protein coated.

No constants are given. Whether binding was seen depends on the method and setting. For part of these data: A result given as binding can be weak or reduced; the word gives no strength.

B1: 76G7 chimeric llama-human IgG1 mAb (antibody, V domains shown)
VH: QVQLVESGGNLVQPGGSLRLSCAASGFTFSNYYMSWVRQAPGKGLEWVSDIYSDGSTTWYSDSVKGRFTISRDNAKNTLSLQMNSLKSEDTAVYYCARVKIYPGGYDAWGQGTQVTVSS
VL: QAGLTQPPSVSGSPGKTVTISCAGNSSDVGYGNYVSWYQQFPGMAPKLLIYLVNKRASGITDRFSGSKSGNTASLTISGLQSEDEADYYCASYTGSNNIVFGGGTHLTVL
notes: human IgG1 CH1-CH2-CH3 and human CL lambda
B1: the binding entry is reported as “binds” in [1]; “binds” in [2]; “no binding (tested: 0-20 nM)” in [3]; “no binding (tested: 0-20 nM)” in [4]; “no binding (tested: 0-20 nM)” in experiment [5]; “binds” in [6]. Moreover, the binding result in experiment [7], in [8], in [9], in [10] and in experiment [11] was “binds” throughout.

B2: 71G3 chimeric llama-human IgG1 mAb (antibody, V domains shown)
VH: QVQLVESGGGLVQPGGSLRVSCAASGFTFSTYYMSWVRQAPGKGLEWVSDIRTDGGTYYADSVKGRFTMSRDNAKNTLYLQMNSLKPEDTALYYCARTRIFPSGYDYWGQGTQVTVSS
VL: QAVVTQEPSLSVSPGGTVTLTCGLSSGSVTTSNYPGWFQQTPGQAPRTLIYNTNSRHSGVPSRFSGSISGNKAALTIMGAQPEDEADYYCSLYPGSTTVFGGGTHLTVL
notes: human IgG1 CH1-CH2-CH3 and human CL lambda; also called 71G3 Human IgG1/lambda
With B2, the binding result is recorded as “binds” in [1]; “binds” in experiment [2]; “no binding (tested: 0-20 nM)” in experiment [3]; “no binding (tested: 0-20 nM)” in experiment [4]; “no binding (tested: 0-20 nM)” in [5]; “binds” in experiment [6]. The binding result in experiment [7], in experiment [8], in [9], in experiment [10] and in [11] was “binds” in each case.

B3: 71A3 chimeric llama-human IgG1 mAb (antibody, V domains shown)
VH: EVQLVESGGGLVQPGGSLRLSCAASGFSFKDYDITWVRQAPGKGLEWVSTITSRSGSTSYVDSVKGRFTISGDNAKNTLYLQMNSLKPEDTAVYYCAKVYATTWDVGPLGYGMDYWGKGTLVTVSS
VL: SYELTQPSALSVTLGQTAKITCQGGSLGSSYAHWYQQKPGQAPVLVIYDDDSRPSGIPERFSGSSSGGTATLTISGAQAEDEGDYYCQSADSSGNAAVFGGGTHLTVL
notes: as for B1
For B3, the binding result in experiment [1] is “binds”; in experiment [2], “binds”; in experiment [3], “no binding (tested: 0-20 nM)”; in experiment [12], “no binding (tested: 0-20 nM)”; in experiment [13], “no binding (tested: 0-20 nM)”; in [6] it was “binds”. Further, the binding result in [7], in [8], in [9], in experiment [14] and in experiment [15] was “binds” throughout.

B4: 76H10 chimeric llama-human IgG1 mAb (antibody, V domains shown)
VH: QLQLVESGGGLVQPGGSLRVSCTASGFTFNTYYMTWVRQAPGKGLEWVSDINSGGGTYYADSVKGRFTISRDNAKNTLYLQMNSLKPEDTALYYCVRVRIWPVGYDYWGQGTQVTVSS
VL: QAVVTQEPSLSVSPGGTVTLTCGLSSGSVTTSNYPGWFQQTPGQAPRTLIYNTNNRHSGVPSRFSGSISGNKAALTITGAQPEDEADYYCSLYTGSYTTVFGGGTHLTVL
notes: as for B1
Turning to B4, the binding entry in experiment [1] was “binds”; in experiment [2] it was “binds”; in experiment [3], “no binding (tested: 0-20 nM)”; in experiment [4], “no binding (tested: 0-20 nM)”; in experiment [5] it was “no binding (tested: 0-20 nM)”; in experiment [6], “binds”. Also, the binding entry in experiment [7], in experiment [8], in [9], in [10] and in experiment [11] was “binds” throughout.

B5: 72F8 chimeric llama-human IgG1 mAb (antibody, V domains shown)
VH: ELQLVESGGGLVQPGGSLRLSCAASGFTFSNYVMSWVRQAPGKGLEWVSDTNSGGSTSYADSVKGRFTISRDNAKNTLYLQMNSLKPEDTALYYCARSFFYGMNYWGKGTQVTVSS
VL: QSALTQPPSLSASPGSSVRLTCTLSSGNNIGSYDISWYQQKAGSPPRYLLNYYTDSRKHQDSGVPSRFSGSKDASANAGLLLISGLQPEDEADYYCSAYKSGSYRWVFGGGTHVTVL
notes: as for B1
In the case of B5, the binding result in [1] is “binds”; in experiment [2], “binds”; in [3] it was “no binding (tested: 0-20 nM)”; in experiment [16], “no binding (tested: 0-20 nM)”; in [12], “no binding (tested: 0-20 nM)”; in experiment [13], “no binding (tested: 0-20 nM)”. Further, the binding entry in experiment [6], in [7], in experiment [8], in [14] and in experiment [15] was “binds” throughout.

B6: 71G2 chimeric llama-human IgG1 mAb (antibody, V domains shown)
VH: EVQLQESGGGLVQPGGSLRLSCAASGFTFSIYDMSWVRQAPGKGLEWVSTINSDGSSTSYVDSVKGRFTISRDNAKNTLYLQMNSLKPEDTAVYYCAKVYGSTWDVGPMGYGMDYWGKGTLVTVSS
VL: SSALTQPSALSVSLGQTARITCQGGSLGSSYAHWYQQKPGQAPVLVIYGDDSRPSGIPERFSGSSSGGTATLTISGAQAEDEDDYYCQSTDSSGNTVFGGGTRLTVL
notes: human IgG1 CH1-CH2-CH3 and human CL lambda; also called 71G2 Human IgG1/lambda
With B6, the binding entry in experiment [1] was “binds”; in experiment [2] it was “binds”; in experiment [3], “no binding (tested: 0-20 nM)”; in [12], “no binding (tested: 0-20 nM)”; in experiment [13] it was “no binding (tested: 0-20 nM)”; in experiment [6], “binds”. Further, the binding entry in experiment [7], in experiment [8], in [9], in experiment [14] and in experiment [15] was “binds” in each case.

B7: 71D6 chimeric llama-human IgG1 mAb (antibody, V domains shown)
VH: ELQLVESGGGLVQPGGSLRLSCAASGFTFSSYGMSWVRQAPGKGLEWVSAINSYGGSTSYADSVKGRFTISRDNAKNTLYLQMNSLKPEDTAVYYCAKEVRADLSRYNDYESYDYWGQGTQVTVSS
VL: QPVLNQPSALSVTLGQTAKITCQGGSLGARYAHWYQQKPGQAPVLVIYDDDSRPSGIPERFSGSSSGGTATLTISGAQAEDEGDYYCQSADSSGSVFGGGTHLTVL
notes: human IgG1 CH1-CH2-CH3 and human CL lambda; also called 71D6 Human IgG1/lambda
With B7, the binding result in experiment [1] is on record as “binds”; in experiment [2] it was “binds”; in experiment [3] it was “no binding (tested: 0-20 nM)”; in [12] it was “no binding (tested: 0-20 nM)”; in experiment [13], “no binding (tested: 0-20 nM)”; in experiment [6], “binds”. Further, the binding result in experiment [7], in [8], in experiment [9], in experiment [14] and in experiment [15] was “binds” each time.

B8: 71C3 chimeric llama-human IgG1 mAb (antibody, V domains shown)
VH: QLQLVESGGGLVQPGGSLRLSCAASGFTFSSHAMSWVRQAPGKGLEWVSAINSGGGSTSYADSVKGRFTISRDNAKNTLYLQMNSLKPEDTAVYYCAKELRFDLARYTDYEAWDYWGQGTQVTVSS
VL: SYELTQPSALSVTLGQTAKITCQGGSLGSSYAHWYQQKPGQAPVLVIYDDDSRPSGIPERFSGSSSGGTATLTISGAQAEDEGDYYCQSADSSGNAAVFGGGTHLTVL
notes: as for B1
As for B8, the binding entry in experiment [1] was “binds”; in experiment [2], “binds”; in [3], “no binding (tested: 0-20 nM)”; in experiment [12], “no binding (tested: 0-20 nM)”; in experiment [13] it was “no binding (tested: 0-20 nM)”; in [6] it was “binds”. Moreover, the binding result in experiment [7], in experiment [8], in [9], in [14] and in experiment [15] was “binds” each time.

B9: 71D4 chimeric llama-human IgG1 mAb (antibody, V domains shown)
VH: ELQLVESGGGLVQPGGSLRLSCAASGFTFSGYGMSWVRQAPGKGLEWVSDINSGGGSTSYADSVKGRFTISRDNAKNTLYLQMNSLKPEDTAVYYCAKDMRLYLARYNDYEAWDYWGQGTQVTVSS
VL: SSALTQPSALSVTLGQTAKITCQGGSLGSSYAHWYQQKPGQAPVLVIYDDDSRPSGIPERFSGSSSGGTATLTISGAQAEDEGDYYCQSADSSGNAAVFGGGTHLTVL
notes: as for B1
As for B9, the binding entry in experiment [1] was “binds”; in experiment [2], “binds”; in experiment [3], “no binding (tested: 0-20 nM)”; in experiment [12] it was “no binding (tested: 0-20 nM)”; in experiment [13] it was “no binding (tested: 0-20 nM)”; in experiment [6], “binds”. Further, the binding entry in [7], in experiment [8], in [9], in experiment [14] and in experiment [15] was “binds” throughout.
